From PubChem BioAssay AID504834 (National Center for Advancing Translational Sciences (NCATS), 2011)
The whole screen tested about 320,000 compounds, of which about 22,000 (6.9%) were called active. The inconclusive results got no clear call from the source; some entries with a clear call stand among them for comparison. Calls follow the shape of the dose curve; as a rule, active = well fitted inhibition curve with a large enough effect; inconclusive = small, poorly fitted or top-dose-only effect, or another doubt; inactive = no such curve, though single readings can be large or run the other way. Potencies beside an inconclusive call are fits to weak or partial responses and may not hold up.

assay: Primary qHTS for delayed death inhibitors of the malarial parasite plastid, 96 hour incubation; details: P. falciparum luciferase reporter growth; series mostly up to 28.7 µM
Outline: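 Two-generation exposure (96 h) targets delayed-death phenotype. Reporter parasites carrying integrated firefly luciferase, in red cells at 2% hematocrit and 0.05% parasitemia final, kept at 37 C, 5% CO2; luminescence loss indicates inhibition.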
Potency is read from the fitted curve at half-maximal effect.

Structure (SMILES)	Potency
COc1ccc(S(N)(=O)=O)cc1C(=O)N(C)CC(=O)Nc1ccc(N2CCOCC2)cc1	inactive
Cc1ccc(CN2CCN(Cc3ccc(Oc4ncccn4)cc3)CC2CCO)cc1 (stereo unspecified)	inconclusive: 13.1 µM [inhibitor, single point]
Cc1ccc(S(=O)(=O)NCCC(=O)N2CCC(Cc3ccccc3)CC2)cc1	inconclusive: 18.5 µM [inhibitor, single point]
O=c1[nH]c(=O)c2[nH]c(=O)[nH]c2[nH]1	inactive
O=C(Cc1ccccc1F)NCC(c1ccco1)N1CCCCC1 (stereo unspecified)	inconclusive: 11.7 µM [inhibitor, partial curve, poor fit]
CCCOc1ccc(N2C(=O)CC(N3CCCC(C(=O)N4CCCC4)C3)C2=O)cc1 (stereo unspecified)	inactive
Cn1c(=O)c2c(nc(NCC3CCCO3)n2Cc2ccccc2)n(C)c1=O (stereo unspecified)	inactive
COc1ccc(/C=C/c2ccc(=O)n(Cc3ccccc3)n2)cc1	inconclusive: 10.4 µM [inhibitor, single point]
O=C(COc1ccc(F)cc1)Nc1cc(S(=O)(=O)N2CCCCC2)ccc1N1CCCCC1	active: 7.38 µM
COc1ccc(NC(=O)CCS(=O)(=O)c2cccc3nonc23)cc1Cl	inactive
CC(NC(=O)c1cc2ccccc2oc1=O)c1ccc(O)cc1 (stereo unspecified)	inconclusive: 10.4 µM [inhibitor, single point]
O=C(Cc1ccc(S(=O)(=O)N2CCOCC2)s1)NNC(=O)c1ccccc1Cl	inconclusive: 2.08 µM [inhibitor, single point]
COCCN1C(=O)C(CC(=O)Nc2ccc(C(C)=O)cc2)SC1=Nc1ccccc1 (stereo unspecified)	inconclusive: 13.1 µM [inhibitor, partial curve, poor fit]
CCC(C(=O)NCc1ccco1)N(C(=O)CNS(=O)(=O)c1ccc(C)cc1)c1ccccc1F (stereo unspecified)	inactive
CCSc1nc2ccccc2n1Cc1cccc([N+](=O)[O-])c1	inactive
O=C(O)/C=C/C(=O)Nc1ccc(NC(=O)c2ccccc2)c(Cl)c1	inconclusive: 4.65 µM [inhibitor, partial curve, poor fit]
Cc1ccc(C(=O)COC(=O)c2cc(=O)[nH]c3ccccc23)cc1	inconclusive: 14.7 µM [inhibitor, single point]
Cc1ccc(-n2ncc(C#N)c2/N=C/N2CCOCC2)cc1	inconclusive: 13.1 µM [inhibitor, partial curve]
COc1ccc(OC)c(NC(=O)CCn2ccnc2)c1	inconclusive: 7.38 µM [inhibitor, partial curve]
COc1ccc(C(=O)COC(=O)c2ccc3c(c2)NC(=O)CS3)c(OC)c1	inconclusive: 13.1 µM [inhibitor, partial curve, poor fit]
Cc1ccc(C(C(=O)NC2CCCCC2)N(CC2CCCO2)C(=O)CCCC(=O)Nc2ccccn2)cc1 (stereo unspecified)	inconclusive: 9.28 µM [inhibitor, partial curve]
Cc1cc(C)cc(OC(=O)CS(=O)c2ccc(C(F)(F)F)cc2[N+](=O)[O-])c1 (stereo unspecified)	inconclusive: 11.7 µM [inhibitor, single point]

Some of the entries above, set out differently:
Structure (SMILES) | Potency
CCCOc1ccc(N2C(=O)CC(N3CCCC(C(=O)N4CCCC4)C3)C2=O)cc1 (stereo unspecified) | inactive
Cn1c(=O)c2c(nc(NCC3CCCO3)n2Cc2ccccc2)n(C)c1=O (stereo unspecified) | inactive

Next part:

Structure (SMILES)	Potency
CNCc1ccccc1Sc1cccc2ccccc12	inconclusive: 11.7 µM [inhibitor, single point]
COC(=O)C1=C(c2ccc(F)cc2OCc2ccccc2)C[C@@H]2CC[C@H]1N2C(=O)NCc1ccc(OC)c(OC)c1	inconclusive: 1.47 µM [inhibitor, full curve]
Cc1ccc(N2C(=O)CC(Sc3ccccc3C(=O)O)C2=O)c([N+](=O)[O-])c1 (stereo unspecified)	inconclusive: 2.94 µM [inhibitor, single point]
Cc1cccc(C(=O)O/N=C(/c2ccccc2)c2ccncc2)c1	inconclusive: 18.5 µM [inhibitor, single point]
Cc1cc(C)c(S(=O)(=O)N2CCOCC2)cc1C	inconclusive: 11.7 µM [inhibitor, single point]
COc1ccccc1NC(=O)CC(NCc1ccccc1)C(=O)O (stereo unspecified)	active: 2.62 µM
O=c1c2ccccc2nc2n1C(CSc1ccccc1)CS2 (stereo unspecified)	inactive
CC(=O)[C@@]1(O)CC[C@H]2[C@H]3C[C@@H](C)C4=CC(=O)C=C[C@]4(C)[C@@]3(F)[C@@H](O)C[C@]21C	inconclusive: 0.405 µM [inhibitor, full curve, poor fit]
Cc1nnc(NC(=O)C2(c3ccccc3)CCOCC2)s1	inconclusive: 5.22 µM [inhibitor, partial curve]
CCCNC(=O)c1ccccc1N1CCN(CCCCN2C(=O)C3CCCCN3C2=O)CC1 (stereo unspecified)	active: 10.4 µM
O=C(c1ccc(Cl)cc1)C1CCCN(Cc2ccon2)C1 (stereo unspecified)	inconclusive: 18.5 µM [inhibitor, single point]
COc1ccccc1/C=C/C(=O)NC(=S)Nc1ccc(S(=O)(=O)N(C)c2ccccc2)cc1	inconclusive: 16.5 µM [inhibitor, single point]
O=C1c2ccccc2C(=O)N1CCCCCCc1ccccc1	inactive
Nc1cccc2nc3ccccc3cc12	inconclusive: 0.0033 µM [inhibitor, full curve, poor fit]
CCc1nc2ccccc2c(C(=O)OCC(=O)Nc2cccc(S(=O)(=O)N3CCOCC3)c2)c1C	inconclusive: 0.0033 µM [inhibitor, full curve, poor fit]
COc1ccc(C2/C=C\CN(S(=O)(=O)c3ccc(C)cc3)CC(=O)N2Cc2ccc(F)cc2)cc1 (stereo unspecified)	inconclusive: 18.5 µM [inhibitor, single point]
COc1ccc2c(Cl)c(C(=O)NN)sc2c1	inconclusive: 18.5 µM [inhibitor, single point]
COC(=O)c1cc(S(=O)(=O)N2CCCCC2)c[nH]1	inconclusive: 18.5 µM [inhibitor, single point]
O=C(Cn1cccc1)N1CCN(c2ccc(F)cc2)CC1	inconclusive: 5.22 µM [inhibitor, partial curve, poor fit]
O=C(CN1C2=NCCN2c2ccccc21)C12CC3CC(CC(C3)C1)C2	inactive
Cc1c(Br)c([N+](=O)[O-])nn1CCCC(=O)NC(C)c1ccccc1 (stereo unspecified)	inconclusive: 18.5 µM [inhibitor, single point]
CC1CCCCC1NC(=S)NC(=O)c1ccccc1Br (stereo unspecified)	inconclusive: 18.5 µM [inhibitor, single point]

Structure (SMILES)	Potency
c1ccc(CNc2nc(CN3CCOCC3)nc3scc(-c4ccccc4)c23)cc1	inconclusive: 2.94 µM [inhibitor, full curve]
CCC(=O)N1c2ccc(S(=O)(=O)N3CCCCC3)cc2CC1C (stereo unspecified)	inconclusive: 10.4 µM [inhibitor, single point]
CCCCn1c(N)c(N(CC(C)C)C(=O)CCS(=O)(=O)c2ccc(C)cc2)c(=O)[nH]c1=O	inactive
CCCc1ccc(C(C)NC(=O)c2cnccn2)cc1 (stereo unspecified)	inactive
COc1ccccc1NS(=O)(=O)c1cccc2nsnc12	inconclusive: 16.5 µM [inhibitor, partial curve, poor fit]
CCOC(=O)c1c(C)[nH]c(C)c1C(=O)COC(=O)c1ccc(S(=O)(=O)C(F)F)cc1	inconclusive: 10.4 µM [inhibitor, single point]
CCn1cc(S(=O)(=O)CC(=O)Nc2cccc(C)c2)c2ccccc21	inconclusive: 4.65 µM [inhibitor, partial curve]
COC(=O)/C=C1/N/C(=N\c2nc(C)cc(C)n2)N(c2ccc(C)c(C)c2)C1=O	inconclusive: 18.5 µM [inhibitor, single point]
O=C(/C=C/c1ccc([N+](=O)[O-])cc1)N(c1ccccn1)C1CCCCC1	inconclusive: 9.28 µM [inhibitor, single point]
CCOc1ccc2nc(N3CCCC(C(=O)NCCCN4C(C)CCCC4C)C3)sc2c1 (stereo unspecified)	inconclusive: 14.7 µM [inhibitor, single point]
CC(C)c1nc(NCc2ccccc2)c(C#N)c2c1CCCC2	inconclusive: 0.037 µM [inhibitor, full curve, poor fit]
CCN(c1ccc(NC(=O)CSc2nnc3nc(C)cc(C)n23)cc1)C(C)C	inconclusive: 11.7 µM [inhibitor, partial curve, poor fit]
COc1cc(C(=O)OCC#N)ccc1OCc1c(C)noc1C	inconclusive: 2.08 µM [inhibitor, full curve, poor fit]
COc1ccccc1NC(=O)c1cc(-c2ccc(C)o2)nc2ccccc12	inactive
O=C(NCc1ccc(Cl)cc1)C1CCC(CNc2c(N3CCCC3)c(=O)c2=O)CC1 (stereo unspecified)	inconclusive: 1.65 µM [inhibitor, full curve]
Cc1csc(NC(=O)CSc2ccccc2F)n1	inactive
O=C(Nc1ccccc1C(=O)N1CCCC1)c1ccc(Cl)cc1Cl	active: 11.7 µM
Cc1c(C)n(C)c2ccc(C(=O)Nc3cccc4ccccc34)cc12	inconclusive: 3.29 µM [inhibitor, partial curve]
COc1ccc(CSc2nncn2N)cc1Br	inconclusive: 13.1 µM [inhibitor, partial curve, poor fit]
O=C(O)C1CCCN1c1nc(-c2ccc(Cl)c(Cl)c2)cc(C(F)(F)F)n1 (stereo unspecified)	inconclusive: 13.1 µM [inhibitor, single point]
O=C(NCCNc1cc(Cl)ccc1[N+](=O)[O-])c1ccco1	inconclusive: 18.5 µM [inhibitor, single point]
Cc1cc(OCC(=O)Nc2ccc(N3CCN(C)CC3)cc2)ccc1Cl	inconclusive: 18.5 µM [inhibitor, single point]
